Experimental data published in US10399966B2, “Compounds for treatment of trypanosomes and neurological pathogens and uses thereof” (The University of North Carolina at Chapel Hill, priority 2016, dated 2019).

Legend:
[1] = system: human lymphocytes CRL-8155; experiment: Cytotoxicity against CRL-8155 cells; conditions: Selectivity index: EC50 (cell line)/EC50 (T. b. brucei)
human hepatocytes HepG2 = experiment: Cytotoxicity against HepG2 cells; conditions: Selectivity index: EC50 (cell line)/EC50 (T. b. brucei)

| Structure (SMILES) | CRL-8155 SI [1] | HepG2 SI (human hepatocytes HepG2) |
| --- | --- | --- |
| O=C(Nc1ccc2sc(-c3ccc(F)c(F)c3)nc2c1)N1CCC(F)(F)C1 [Compound 9, 2-(3,4-Difluorophenyl)-5-(3,3-difluoro-N-pyrrolidylamido)benzothiazole] | >54 | – |
| O=C(Nc1ccc2sc(-c3ccccc3)nc2c1)c1cccs1 [Compound 18, 2-Phenyl-5-(2-thienylamido)benzothiazole] | >57 | – |
| O=C(Nc1ccc2sc(-c3cccc(F)c3)nc2c1)c1ccccc1 [Compound 28, 5-Benzamido-2-(3-fluorophenyl)benzothiazole] | above 500 | – |
| O=C(Nc1ccc2sc(-c3ccccc3F)nc2c1)N1CCCC1 [Compound 32, 2-(2-Fluorophenyl)-5-(N-pyrrolidylamido)benzothiazole] | >51 | – |
| O=C(Nc1ccc2sc(-c3ccccc3F)nc2c1)N1CCCCC1 [Compound 33, 2-(2-Fluorophenyl)-5-(N-piperidylamido)benzothiazole] | >53 | – |
| N=C(N)c1ccc(OCCCCCOc2ccc(C(=N)N)cc2)cc1 [penth, Pentamidine, reference compound] | >43200 | >93000 |
